We go through three molecules from paper PMC3814876.

Protein sequences, listed by entry. Tags and fused reporters are not part of them.
UniProt Q13546: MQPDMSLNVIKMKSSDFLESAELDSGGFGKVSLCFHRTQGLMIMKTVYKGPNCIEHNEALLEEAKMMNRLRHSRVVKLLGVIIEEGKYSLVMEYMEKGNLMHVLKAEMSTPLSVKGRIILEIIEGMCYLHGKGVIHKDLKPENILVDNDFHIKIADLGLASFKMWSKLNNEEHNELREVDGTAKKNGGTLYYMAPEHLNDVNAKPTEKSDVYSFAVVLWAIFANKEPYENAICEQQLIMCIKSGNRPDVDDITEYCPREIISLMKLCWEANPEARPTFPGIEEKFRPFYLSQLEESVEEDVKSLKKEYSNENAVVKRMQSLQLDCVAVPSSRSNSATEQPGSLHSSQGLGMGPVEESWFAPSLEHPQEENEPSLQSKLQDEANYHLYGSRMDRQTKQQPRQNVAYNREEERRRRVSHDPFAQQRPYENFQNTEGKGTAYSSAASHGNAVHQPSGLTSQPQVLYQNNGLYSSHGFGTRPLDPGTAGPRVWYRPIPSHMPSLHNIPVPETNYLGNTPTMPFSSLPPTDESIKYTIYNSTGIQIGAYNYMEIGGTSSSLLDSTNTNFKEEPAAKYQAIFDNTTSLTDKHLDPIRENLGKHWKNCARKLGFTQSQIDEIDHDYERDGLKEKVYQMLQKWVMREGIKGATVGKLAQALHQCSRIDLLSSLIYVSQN

One experiment concerns the target T1, IRF7 (UniProt Q92985).
T1 sequence: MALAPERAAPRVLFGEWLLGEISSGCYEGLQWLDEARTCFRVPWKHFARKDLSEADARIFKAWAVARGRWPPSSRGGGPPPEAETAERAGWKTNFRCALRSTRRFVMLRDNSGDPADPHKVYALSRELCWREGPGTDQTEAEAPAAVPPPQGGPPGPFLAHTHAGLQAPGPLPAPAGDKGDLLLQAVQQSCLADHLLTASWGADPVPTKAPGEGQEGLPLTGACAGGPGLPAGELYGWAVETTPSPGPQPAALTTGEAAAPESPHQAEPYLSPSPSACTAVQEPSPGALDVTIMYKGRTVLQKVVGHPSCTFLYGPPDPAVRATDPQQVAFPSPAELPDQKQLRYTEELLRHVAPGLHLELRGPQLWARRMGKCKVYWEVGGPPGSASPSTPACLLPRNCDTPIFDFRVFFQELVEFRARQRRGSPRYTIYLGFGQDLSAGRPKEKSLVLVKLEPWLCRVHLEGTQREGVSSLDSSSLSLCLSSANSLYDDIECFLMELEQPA
The experiment can be described thus: co-IP; expression vectors transfected into 293T cells; lysis in NP40 IP buffer (50 mM Tris pH 8.0, 150 mM NaCl, 0.5% NP-40) or RIPA; antibody overnight at 4°C, Protein G 3 hours; immunoblot for c-Myc or FLAG; in Figure 6G-I with or without co-expressed DDX24 or DDX24 siRNA. (Immunoblotting shows a protein as a band on a membrane.)

The target of experiment [1] is T2, endogenous mouse FADD (MEF) (mouse (endogenous in MEF)) (UniProt Q61160).
T2 sequence: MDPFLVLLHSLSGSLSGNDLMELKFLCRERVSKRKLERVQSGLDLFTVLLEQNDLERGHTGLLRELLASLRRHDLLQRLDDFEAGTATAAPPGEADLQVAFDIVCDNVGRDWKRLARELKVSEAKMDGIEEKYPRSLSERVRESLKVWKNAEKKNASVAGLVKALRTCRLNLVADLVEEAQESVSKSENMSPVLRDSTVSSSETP
The experiment can be described thus: co-IP; endogenous IP of DDX24 and FADD in MEF, with or without 6 hours poly I:C treatment.

Experiment [2] addresses T3, endogenous human TRADD (293T) (human (endogenous in 293T)) (UniProt Q15628).
T3 sequence: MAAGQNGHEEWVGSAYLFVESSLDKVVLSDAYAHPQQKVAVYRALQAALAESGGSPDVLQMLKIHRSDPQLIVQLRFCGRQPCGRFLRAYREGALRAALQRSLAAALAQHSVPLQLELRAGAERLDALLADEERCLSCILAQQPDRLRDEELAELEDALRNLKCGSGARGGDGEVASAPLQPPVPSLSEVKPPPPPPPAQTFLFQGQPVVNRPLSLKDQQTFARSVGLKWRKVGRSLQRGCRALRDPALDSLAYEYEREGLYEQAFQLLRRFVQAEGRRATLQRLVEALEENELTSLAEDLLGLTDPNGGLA
Description: co-IP; endogenous IP of DDX24 and TRADD in 293T cells (Figure S2F).

Results are given in words; binding and its absence hold for the method and conditions named. Binding seen in cells or lysates may run through a third protein. Some entries that bind do so weakly or less than the wild type.

Take c-Myc-RIP1 (from UniProt Q13546 1-671): the binding entry with IRF7 is on record as “binds”.

B1: endogenous mouse DDX24 (MEF) (protein, UniProt Q9ESV0 1-857)
chain: MKVKETNSKPKLASRGTFQRKGIKIVGKWKQVTIDPNLFADGQMDDLVCFEELTDYRLVKNPSRLFSSEETKKRKAQAVSEEEEEEEGQSSSPKKKIKLKKQRDAARAAEGAAAQNEYEVKASEPEAQGEVTACSDQKVGGAKSESLAQAAPRKKKNKGKKKLDTFQSTSPKLPKKSKKTWMAEVHDQKADVSAWRDLFVPKAVLRALSFLGFSAPTPIQALTLAPAIRDKLDILGAAETGSGKTLAFAIPMIHSVLQWHKMKAPPIPRSTGMPPREMRFGATAHLGSPCKDRTESGVLPEEARIETEAQPSDSGVQATPETSASASAQTLLVCDDDAGEGPSSLEEKPVPKQNEDGEEKFDAEQAGKLKQELCDQIAIYKVHPRRPLLGLVLTPTRELAIQVRQHIDAVAKFTGINTAILVGGMSTQKQQRMLNRHPEIVIATPGRLWELVKEKHPHLSNLRQLRCLVIDEADRMVEKGHFAELSQLLEMLNDSQYNPSRQTLVFSATLTLVHQAPARILHKKHVKKMDKTDKLDLLMQKVGMRGKPKVIDLTRNEGTVETLTETKIHCETDEKDLYLYYFLMQYPGRSLVFANSISCIKRLSGLLKVLDVMPLTLHACMHQKQRLRNLEQFARLQDCVLLATDVAARGLDIPKVQHVIHYQVPRTSEIYIHRSGRTARAASEGLSLMLIGPEDVINFKKIYKTLQKDEDIPLFPVQSKYMDVVKERIRLARQIEKAEYRNFQACLHNSWIEQAAAALEIELEEEMYKGGKADQQEERRRQKQMKMLKQELRHLLSQPLFQENLKTRYPTQSGRPPQPVLASRNIESALSCLSRQKRRRKKPKEPRAPPQPGSSTS
On to B1, for which the binding result in experiment [1] is on record as “binds”.

B2: endogenous human DDX24 (293T) (protein, UniProt Q9GZR7 1-859)
chain: MKLKDTKSRPKQSSCGKFQTKGIKVVGKWKEVKIDPNMFADGQMDDLVCFEELTDYQLVSPAKNPSSLFSKEAPKRKAQAVSEEEEEEEGKSSSPKKKIKLKKSKNVATEGTSTQKEFEVKDPELEAQGDDMVCDDPEAGEMTSENLVQTAPKKKKNKGKKGLEPSQSTAAKVPKKAKTWIPEVHDQKADVSAWKDLFVPRPVLRALSFLGFSAPTPIQALTLAPAIRDKLDILGAAETGSGKTLAFAIPMIHAVLQWQKRNAAPPPSNTEAPPGETRTEAGAETRSPGKAEAESDALPDDTVIESEALPSDIAAEARAKTGGTVSDQALLFGDDDAGEGPSSLIREKPVPKQNENEEENLDKEQTGNLKQELDDKSATCKAYPKRPLLGLVLTPTRELAVQVKQHIDAVARFTGIKTAILVGGMSTQKQQRMLNRRPEIVVATPGRLWELIKEKHYHLRNLRQLRCLVVDEADRMVEKGHFAELSQLLEMLNDSQYNPKRQTLVFSATLTLVHQAPARILHKKHTKKMDKTAKLDLLMQKIGMRGKPKVIDLTRNEATVETLTETKIHCETDEKDFYLYYFLMQYPGRSLVFANSISCIKRLSGLLKVLDIMPLTLHACMHQKQRLRNLEQFARLEDCVLLATDVAARGLDIPKVQHVIHYQVPRTSEIYVHRSGRTARATNEGLSLMLIGPEDVINFKKIYKTLKKDEDIPLFPVQTKYMDVVKERIRLARQIEKSEYRNFQACLHNSWIEQAAAALEIELEEDMYKGGKADQQEERRRQKQMKVLKKELRHLLSQPLFTESQKTKYPTQSGKPPLLVSAPSKSESALSCLSKQKKKKTKKPKEPQPEQPQPSTSAN
For the molecule B2, the binding entry in experiment [2] is listed as “no binding”.
